Paper doi:10.1101/102806
No constants are given. Whether binding was seen depends on the method and setting. Binding seen in cells or lysates may run through a third protein. Some entries that bind do so weakly or less than the wild type.

Protein sequences, listed by entry. Tags and fused reporters are not part of them.
UniProt P52297: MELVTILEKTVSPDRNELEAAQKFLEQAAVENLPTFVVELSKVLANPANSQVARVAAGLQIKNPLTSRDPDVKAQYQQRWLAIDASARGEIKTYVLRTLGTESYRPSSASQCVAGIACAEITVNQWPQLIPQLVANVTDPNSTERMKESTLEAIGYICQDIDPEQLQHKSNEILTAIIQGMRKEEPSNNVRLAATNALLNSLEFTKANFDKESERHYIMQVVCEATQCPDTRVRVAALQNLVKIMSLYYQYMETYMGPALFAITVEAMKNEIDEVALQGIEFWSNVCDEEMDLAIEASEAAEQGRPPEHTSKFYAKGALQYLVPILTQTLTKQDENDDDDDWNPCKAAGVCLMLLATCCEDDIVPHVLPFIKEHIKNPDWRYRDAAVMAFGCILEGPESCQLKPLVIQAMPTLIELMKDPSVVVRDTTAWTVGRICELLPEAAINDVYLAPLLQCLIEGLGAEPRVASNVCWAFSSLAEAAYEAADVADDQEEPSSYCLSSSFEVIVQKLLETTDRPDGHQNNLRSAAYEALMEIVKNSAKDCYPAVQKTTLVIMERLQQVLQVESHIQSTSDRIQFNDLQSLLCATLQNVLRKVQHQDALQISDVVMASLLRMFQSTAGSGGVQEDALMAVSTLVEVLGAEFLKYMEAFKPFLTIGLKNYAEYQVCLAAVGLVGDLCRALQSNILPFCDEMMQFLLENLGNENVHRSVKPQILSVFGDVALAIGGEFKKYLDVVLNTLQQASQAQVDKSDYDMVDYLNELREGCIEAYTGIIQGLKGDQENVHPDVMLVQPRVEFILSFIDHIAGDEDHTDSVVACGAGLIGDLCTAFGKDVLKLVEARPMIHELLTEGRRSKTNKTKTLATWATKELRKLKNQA

Molecular target: importin-β, endogenous (Xenopus laevis (endogenous in Xenopus egg extract)) (UniProt P52297)
Assay: pull-down

binding: binds
B1: TPX2 (Targeting protein for Xklp2-A), endogenous (protein, UniProt Q6NUF4 1-716)
chain: MEDTQDTYSYDAPSIFNFSSFHEDHNADSWFDQVTNAENIPPDQRRLSETSVNTEQNSKVEPVQTTPSKDDVSNSATHVCDVKSQSKRSSRRMSKKHRQKLLVKMKDTHLEKETAPPEYPPCKKLKGSSSKGRHAPVIKSQSTSSHHSMTSPKPKAQLTMPSTPTVLKRRNVLVKAKNSEEQELEKMQELQKEMLENLKKNEHSMKVAITGAGQPVKTFIPVTKPVDFHFKTDDRLKRTANQPEGDGYKAVDFASELRKHPPSPVQVTKGGHTVPKPFNLSKGKRKHEEASDYVSTAEQVIAFYKRTPARYHLRSRQREMEGPSPVKMIKTKLTNPKTPLLQTKGRHRPVTCKSAAELEAEELEMINQYKFKAQELDTRILEGGPVLLKKPLVKEPTKAIGFDLEIEKRIQQREKKEEIEEETFTFHSRPCPSKMLTDVVGVPLKKLLPVTVPQSPAFALKNRVRIPAQEEKQEEMVPVIKATRMPHYGVPFKPKLVEQRQVDVCPFSFCDRDKERQLQKEKRLDELRKDEVPKFKAQPLPQFDNIRLPEKKVKMPTQQEPFDLEIEKRGASKLQRWQQQIQEELKQQKEMVVFKARPNTVVHQEPFVPKKENRSLTESLSGSIVQEGFELATAKRAKERQEFDKCLAETEAQKSLLEEEIRKRREEEEKEEISQLRQELVHKAKPIRKYRAVEVKASDVPLTVPRSPNFSDRFKC
